Test results from PubChem BioAssay AID493014 (National Center for Advancing Translational Sciences (NCATS), 2011).
“And” between values parts separate entries of the source, which are not always exact repeats. Equal values may be shown once. This is one part of the list. These are further read-outs of the screen, such as a control signal, another cell line or another target. No call is given for them. Compounds called inactive in the main read-out are mostly missing here. Potencies come from curve fits of mixed quality, noted in brackets.

Assay: qHTS Assay to Find Inhibitors of Chronic Active B-Cell Receptor Signaling
Settings: ABC-DLBCL IkBa-CBG/CBR reporter, luminescence ratio (green luciferase fused to IkBa over red control in TMD8 lymphoma cells), 4 h
In short: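 Doxycycline induced both beetle luciferases in TMD8 lymphoma cells; IKK-driven degradation limits the IkappaBalpha-fused green signal, while red luminescence normalises for cell number and nonspecific effects. Compounds tested up to 46 uM, 4 hrs.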

[1] = measured here: CBR red luminescence, cell number
[2] = measured here: IkBa-CBG green luminescence

SMILES	AC50 [1]	AC50 [2]
CC1CCCCN1C(=O)COC(=O)C1CCN(S(=O)(=O)c2c(Cl)cccc2Cl)CC1 (configuration not stated)	6.31 µM [rising, full curve, poor fit]	–
O=C(O)c1ccc(NS(=O)(=O)c2cccc(C(=O)Nc3ccc([N+](=O)[O-])cc3)c2)cc1	12.6 µM [rising, single point]	–
CN(Cc1cccs1)C(=O)Cn1cnc2cc([N+](=O)[O-])ccc2c1=O	35.5 µM [falling, single point]	–
COC(=O)c1cc2sc(Cl)cc2n1CC(=O)Nc1ccc(OC)c(OC)c1OC	0.794 µM [falling, full curve, poor fit]	–
CCOc1ccc(Sc2cc(C(=O)NC(C)c3ccccc3)c3ccccc3n2)cc1 (configuration not stated)	3.16 µM [falling, partial curve, poor fit]	–
COc1cccc2sc(N(CCCN(C)C)C(=O)COc3ccc(Cl)cc3)nc12	20 µM [falling, single point]	–
Cc1cc(=O)[nH]c(SCC(=O)Nc2ccc(Br)cc2)c1C#N	1.64 µM [rising, single point]	–
O=C(O)Cc1ccc(C(=O)c2ccccc2)s1	23.1 µM [rising, partial curve]	10.3 µM [rising, partial curve, poor fit]
O=C1/C(=C/c2ccco2)CCC1C1CCCC1 (configuration not stated)	4.47 µM [rising, single point]	–
O=C(NCC(c1ccco1)N1CCCC1)c1cn(Cc2ccccc2)nc1-c1ccccc1 (configuration not stated)	18.4 µM [falling, single point]	–
Cc1ccc2oc(-c3ccc(NC(=O)c4ccc5c(c4)OCO5)cc3)nc2c1	20.6 µM [rising, single point]	–
CNC(=O)C(=O)NCC1CCCN1S(=O)(=O)c1cccs1 (configuration not stated)	18.4 µM [rising, partial curve, poor fit]	–
CC(C)(C)c1cc(C(=O)Nc2ccc(F)cc2)n(Cc2ccc(F)cc2)n1	35.5 µM [falling, single point]	–
CN(C)c1ccc(-c2nc3ccccc3c(=O)[nH]2)cc1	10 µM [falling, partial curve]	5.01 µM [rising, full curve]
COc1ccc(C2c3ccc4ccccc4c3Oc3ncn(Cc4ccco4)c(=N)c32)cc1OC (configuration not stated)	9.2 µM [falling, partial curve]	–
Cc1cccc(N2CCN(S(=O)(=O)c3ccc(Cl)nc3)CC2C)c1 (configuration not stated)	9.2 µM [falling, partial curve]	–
O=[N+]([O-])c1cccc(N/N=C/c2cc([N+](=O)[O-])ccc2O)c1	6.31 µM [falling, full curve]	–
CCN(CC)S(=O)(=O)c1ccc(C)c(NC(=O)COC(=O)CN2C(=O)NC(C)(C)C2=O)c1	0.082 µM [rising, full curve, poor fit]	–
O=[N+]([O-])c1ccc(Sc2ccc(Cl)c(Cl)c2)nc1	7.08 µM [falling, partial curve, poor fit]	–
CCOC(=O)COc1cccc2c(=O)n(CC(=O)NCc3ccc4c(c3)OCO4)ccc12	–	2.91 µM [falling, partial curve, poor fit]

Reprinted at random: 3 records from the list.
SMILES	AC50 [1]	AC50 [2]
O=C1/C(=C/c2ccco2)CCC1C1CCCC1 (configuration not stated)	4.47 µM [rising, single point]	–
COC(=O)c1cc2sc(Cl)cc2n1CC(=O)Nc1ccc(OC)c(OC)c1OC	0.794 µM [falling, full curve, poor fit]	–
O=C(O)c1ccc(NS(=O)(=O)c2cccc(C(=O)Nc3ccc([N+](=O)[O-])cc3)c2)cc1	12.6 µM [rising, single point]	–

(list continues)

SMILES	AC50 [1]	AC50 [2]
Cc1ccc2[nH]c(=O)c(CN(Cc3ccc4c(c3)OCO4)Cc3nnnn3Cc3ccco3)cc2c1	0.517 µM [falling, full curve, poor fit]	–
Cc1ccc2[nH]c(-c3cccc(F)c3)cc(=O)c2c1	2.31 µM [rising, full curve]	4.61 µM [falling, full curve]
Cc1cccc(N(CC(=O)NCCc2ccccc2)C(=O)CCC(=O)Nc2ccccn2)c1C	20 µM [falling, single point]	–
N#Cc1ccc(OCC(=O)NCCN2CCOCC2)cc1	25.9 µM [rising, single point]	–
COC(=O)c1sc(OC)cc1OCc1ccc(C)cc1	29.1 µM [rising, single point]	–
Cc1ccc(OCc2ccc(C(=O)Nc3nccs3)o2)cc1C	3.55 µM [falling, partial curve, poor fit]	–
Cc1c(CCNC(=O)c2ccc(Br)o2)sc2nc(-c3ccc(F)cc3)nn12	14.1 µM [falling, single point]	–
COc1cccc(OC)c1C(=O)N1CCN(C(=O)c2ccc(-c3ccccc3)cc2)CC1	0.398 µM [falling, full curve, poor fit]	–
S=c1[nH]nc(C2CCCCC2)n1/N=C/c1cccc(Cl)c1Cl	35.5 µM [rising, single point]	–
O=C(Cn1c(=O)c2cccn2c2ccccc21)NCCc1ccccc1	8.91 µM [rising, partial curve, poor fit]	–
O=c1c2cc3ccccc3n2cnn1Cc1ccccc1F	10.3 µM [rising, partial curve]	23.1 µM [falling, single point]
COc1ccc(/C=C2/C(=O)ON=C2c2ccccc2)cc1OC	11.2 µM [rising, single point]	–
COC(=O)c1ccc(-c2nc3ccccc3[nH]2)cc1	9.2 µM [falling, partial curve]	–
COc1ccc(-n2c(SCC(=O)Nc3ccc(C(N)=O)cc3)nc3c([nH]c4ccccc43)c2=O)cc1OC	31.6 µM [rising, single point]	17.8 µM [falling, single point]
CC(=O)c1ccc(/C=C/c2nc3ccccc3n2C)o1	35.5 µM [falling, single point]	–
Cc1ccc(C(=O)O)cc1N1C(=O)c2cccc3c([N+](=O)[O-])ccc(c23)C1=O	22.4 µM [falling, single point]	–
COc1cc(OC)c(/C=C2\C(=O)Nc3ccccc32)c(OC)c1	29.1 µM [falling, single point]	20.6 µM [falling, partial curve]
O=C1CCCCC1C(=O)c1ccccc1 (configuration not stated)	3.55 µM [falling, single point]	–
CCOc1ccccc1CNc1ncnc2ccc(-c3c(C)noc3C)cc12	20.6 µM [falling, partial curve, poor fit] and 29.1 µM [falling, single point]	–
C[C@H]1CN([C@@H](C)CO)C(=O)c2cccc(NC(=O)Nc3ccc(C(F)(F)F)cc3)c2O[C@@H]1CN(C)C(=O)Nc1ccc(F)cc1	29.1 µM [falling, single point]	–

SMILES	AC50 [1]	AC50 [2]
COc1ccc2cc(C=O)n(C)c2c1	3.26 µM [rising, full curve]	–
Cc1cc2cc(CNC(=O)Nc3ccccc3)ccc2n1C	16.4 µM [rising, partial curve, poor fit]	–
CCOCCCNC(=S)N(CCN(C)C)Cc1cc2cc3c(cc2[nH]c1=O)OCCO3	4.47 µM [falling, partial curve, poor fit]	–
COc1ccc(-c2cnnn2-c2ccc(NC(=O)c3ccc(S(=O)(=O)N4CCCCC4)cc3)cc2)cc1	18.4 µM [rising, partial curve, poor fit]	–
Cc1cc(C)cc(NC(=S)N(CCCN2CCN(C)CC2)Cc2cccs2)c1	20 µM [falling, partial curve, poor fit]	–
Cc1ccc(/C=C2/SC(=S)N(CCC(=O)NCCCN3CCOCC3)C2=O)cc1	14.1 µM [falling, single point]	–
Cc1cccc(N(CC(=O)NC2CCCCC2)C(=O)Cn2nnc(-c3ccc(C)o3)n2)c1	5.01 µM [falling, partial curve, poor fit]	–
COc1cc(S(=O)(=O)N2CCN(Cc3ccc4c(c3)OCO4)CC2)c(C)cc1C	16.4 µM [falling, single point]	–
COc1cccc(N2C(=O)CC(Sc3nc(C)cc(C)n3)C2=O)c1 (configuration not stated)	35.5 µM [rising, single point]	–
CCOc1ccc(CN(C)C(=O)c2cc3ccccc3o2)cc1OC	0.316 µM [rising, full curve, poor fit]	–
Nc1ccc2c(c1)C(=O)N(CC1CCCO1)C2=O (configuration not stated)	0.13 µM [falling, full curve, poor fit]	–
Cc1ccc(SCC(=O)N2CCCC2)cc1	6.31 µM [rising, partial curve]	–
Cc1ccc(S(=O)(=O)C(C#N)c2nc3ccccc3nc2N2CCCC2)cc1 (configuration not stated)	5.8 µM [falling, full curve, poor fit]	–
CCc1ccc(N=CC2=C(O)CC(c3ccco3)CC2=O)cc1 (configuration not stated)	4.61 µM [rising, single point]	–
CC(=O)[C@H]1CC[C@H]2[C@@H]3C=CC4=CC(=O)CC[C@@]4(C)[C@@H]3CC[C@]12C	10.3 µM [rising, partial curve, poor fit]	–
COc1ccc(C(=O)C2CCCN(C(=O)c3cccnc3SC)C2)c(C)c1 (configuration not stated)	0.794 µM [rising, full curve, poor fit]	–
N/C(=N\OC(=O)Cc1ccccc1)c1ccc(Br)cc1	2.06 µM [rising, partial curve]	–
Cc1ccc2nc(-c3ccccc3)cn2c1	7.08 µM [falling, partial curve]	–
COC(=O)C1C(O)=C(C=Nc2cccc3ccccc23)C(=O)CC1(C)C (configuration not stated)	35.5 µM [falling, partial curve, poor fit]	20 µM [falling, partial curve, poor fit]
O=C(Nc1ccc(F)cc1)c1sc(Cl)nc1-c1ccccc1	23.1 µM [falling, partial curve, poor fit]	–

Ordered by molar mass (descending): three of the compounds above.
SMILES	AC50 [1]	AC50 [2]
COc1cc(S(=O)(=O)N2CCN(Cc3ccc4c(c3)OCO4)CC2)c(C)cc1C	16.4 µM [falling, single point]	–
Cc1ccc2nc(-c3ccccc3)cn2c1	7.08 µM [falling, partial curve]	–
COc1ccc2cc(C=O)n(C)c2c1	3.26 µM [rising, full curve]	–
